Laboratory results: publication doi:10.1101/2023.03.06.531310
Residue numbers refer to the chain shown, from its start. In names and notes the source's numbering stands. Results are given in words; binding and its absence hold for the method and conditions named. Binding seen in cells or lysates may run through a third protein. Some entries that bind do so weakly or less than the wild type. For some of these results: Sequences can lack the tags named with a protein.

Experiments:
[1] = biological target: T1, FLAG-FAM122A R81A-L82A (SLiM mutant) (mouse) (UniProt Q9DB52); experiment: co-IP
T1 sequence: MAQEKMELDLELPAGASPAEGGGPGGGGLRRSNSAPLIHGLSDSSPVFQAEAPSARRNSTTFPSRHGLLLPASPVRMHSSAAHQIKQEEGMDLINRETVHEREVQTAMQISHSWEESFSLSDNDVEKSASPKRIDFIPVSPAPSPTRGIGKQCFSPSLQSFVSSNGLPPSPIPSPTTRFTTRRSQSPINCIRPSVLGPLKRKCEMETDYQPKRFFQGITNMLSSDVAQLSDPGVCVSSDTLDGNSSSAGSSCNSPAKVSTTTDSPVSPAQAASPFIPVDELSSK

[2] = biological target: T2, FLAG-FAM122A I85A/K86A (mouse) (UniProt Q9DB52); experiment: co-IP
T2 sequence: T1 sequence with A81R, A82L, I85A, K86A

[3] = biological target: FLAG-FAM122A wild type (murine) (mouse) (UniProt Q9DB52); experiment: co-IP
[4] = biological target: T3, FLAG-FAM122A S73A (mouse) (UniProt Q9DB52); experiment: co-IP
T3 sequence: T1 sequence with S73A, A81R, A82L

Myc-B55α C239G = biological target: T4, Myc-B55α C239G (UniProt P63151); experiment: co-IP
T4 sequence: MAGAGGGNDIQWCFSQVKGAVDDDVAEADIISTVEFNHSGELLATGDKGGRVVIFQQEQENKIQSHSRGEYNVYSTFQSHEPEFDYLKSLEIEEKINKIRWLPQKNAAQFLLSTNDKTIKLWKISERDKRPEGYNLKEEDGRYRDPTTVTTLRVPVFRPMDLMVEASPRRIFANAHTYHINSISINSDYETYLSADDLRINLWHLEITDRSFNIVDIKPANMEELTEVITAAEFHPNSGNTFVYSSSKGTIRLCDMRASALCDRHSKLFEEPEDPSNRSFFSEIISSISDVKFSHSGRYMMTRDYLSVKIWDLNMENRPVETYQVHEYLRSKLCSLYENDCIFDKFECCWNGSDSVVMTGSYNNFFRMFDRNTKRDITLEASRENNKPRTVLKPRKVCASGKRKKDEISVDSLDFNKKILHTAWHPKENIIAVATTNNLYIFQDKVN

Myc-B55α wild type = biological target: T5, Myc-B55α wild type (UniProt P63151); experiment: co-IP
T5 sequence: T4 sequence with G239C

[5] = biological target: FLAG-FAM122A wild type (murine) (mouse), Q9DB52; experiment: co-IP; details: remark: other sources report otherwise
FAM122A-C-FAST10 = FAM122A-C-FAST10 (UniProt Q9DB52); experiment: split reporter

B1: Myc-B55α wild type (protein, UniProt P63151 1-447)
chain: T4 sequence with G239C
[1]
  binding: no binding
[2]
  binding: no binding
[3]
  binding: binds
[4]
  binding: binds

B2: p107 substrate (Suppl. Fig. 3) (protein, UniProt P28749 1-1068)
chain: MFEDKPHAEGAAVVAAAGEALQALCQELNLDEGSAAEALDDFTAIRGNYSLEGEVTHWLACSLYVACRKSIIPTVGKGIMEGNCVSLTRILRSAKLSLIQFFSKMKKWMDMSNLPQEFRERIERLERNFEVSTVIFKKYEPIFLDIFQNPYEEPPKLPRSRKQRRIPCSVKDLFNFCWTLFVYTKGNFRMIGDDLVNSYHLLLCCLDLIFANAIMCPNRQDLLNPSFKGLPSDFHTADFTASEEPPCIIAVLCELHDGLLVEAKGIKEHYFKPYISKLFDRKILKGECLLDLSSFTDNSKAVNKEYEEYVLTVGDFDERIFLGADAEEEIGTPRKFTRDTPLGKLTAQANVEYNLQQHFEKKRSFAPSTPLTGRRYLREKEAVITPVASATQSVSRLQSIVAGLKNAPSDQLINIFESCVRNPVENIMKILKGIGETFCQHYTQSTDEQPGSHIDFAVNRLKLAEILYYKILETVMVQETRRLHGMDMSVLLEQDIFHRSLMACCLEIVLFAYSSPRTFPWIIEVLNLQPFYFYKVIEVVIRSEEGLSRDMVKHLNSIEEQILESLAWSHDSALWEALQVSANKVPTCEEVIFPNNFETGNGGNVQGHLPLMPMSPLMHPRVKEVRTDSGSLRRDMQPLSPISVHERYSSPTAGSAKRRLFGEDPPKEMLMDKIITEGTKLKIAPSSSITAENVSILPGQTLLTMATAPVTGTTGHKVTIPLHGVANDAGEITLIPLSMNTNQESKVKSPVSLTAHSLIGASPKQTNLTKAQEVHSTGINRPKRTGSLALFYRKVYHLASVRLRDLCLKLDVSNELRRKIWTCFEFTLVHCPDLMKDRHLDQLLLCAFYIMAKVTKEERTFQEIMKSYRNQPQANSHVYRSVLLKSIPREVVAYNKNINDDFEMIDCDLEDATKTPDCSSGPVKEERGDLIKFYNTIYVGRVKSFALKYDLANQDHMMDAPPLSPFPHIKQQPGSPRRISQQHSIYISPHKNGSGLTPRSALLYKFNGSPSKSLKDINNMIRQGEQRTKKRVIAIDSDAESPAKRVCQENDDVLLKRLQDVVSERANH
Myc-B55α C239G
  binding: binds

B3: FLAG-p107 (protein, UniProt P28749 1-1068)
chain: B2 chain
Myc-B55α wild type
  binding: binds

B4: Myc-B55α L225A, P63151 1-447 (protein)
chain: T4 sequence with L225A, G239C
[5]
  binding: binds

B5: B55α-N-FAST (protein, UniProt P63151 1-447)
chain: T4 sequence with G239C
FAM122A-C-FAST10
  binding: binds

B6: Myc-B55α C239G (protein, UniProt P63151 1-447)
chain: T4 sequence
[3]
  binding: binds

B7: Myc-B55α D197K (protein, UniProt P63151 1-447)
chain: T4 sequence with D197K, G239C
[3]
  binding: no binding
